This data set in a line: general procedure: Fmoc solid-phase peptide synthesis; Merck LL MHBA low-loading Rink amide resin (0.308 mmol/g, 100-200 mesh); HATU/DIPEA. The conditions noted are these: conjugation step.

“DBCO-PEG5-PEG2-Glu(-PEG4-Val-Cit-PABC-MMAE)-PEG2-PEG2-Glu(-PEG4-Val-Cit-PABC-MMAE)-NH2” came in with a conjugation yield of 16%.

(Values after patent US20250082768 (published 2025).)
